No constants are given. Whether binding was seen depends on the method and setting. In cells and extracts the contact can be indirect. Some results given as binding are weak or reduced against the parent protein; the word gives no strength.
Target: T1, … peptide substrate
T1 sequence (peptide): VGAGIGFPAYDG
Test: LC-MS of the macrocyclization reaction; covalent acyl-enzyme intermediate

B1: PatGmac wild-type (macrocyclase domain of PatG, residues 492-851) (enzyme)
chain: GEDEIESAGVSASEVESSATKQKVALHPHDLDERIPGLADLHNQTLGDPQITIVIIDGDPDYTLSCFEGAEVSKVFPYWHEPAEPITPEDYAAFQSIRDQGLKGKEKEEALEAVIPDTKDRIVLNDHACHVTSTIVGQEHSPVFGIAPNCRVINMPQDAVIRGNYDDVMSPLNLARAIDLALELGANIIHCAFCRPTQTSEGEEILVQAIKKCQDNNVLIVSPTGNNSNESWCLPAVLPGTLAVGAAKVDGTPCHFSNWGGNNTKEGILAPGEEILGAQPCTEEPVRLTGTSMAAPVMTGISALLMSLQVQQGKPVDAEAVRTALLKTAIPCDPEVVEEPERCLRGFVNIPGAMKVLFGQ
  binding: binds

Reference: patent publication US20150322474A1 (UNIVERSITY OF THE UNIVERSITY OF ABERDEEN, published 2015)
